{"sequences": {"note": "The chains behind the UniProt entries cited, without tags or fusion partners. Residues count along the entry.", "UniProt P24807, residues 27-53": "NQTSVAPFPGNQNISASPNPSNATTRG"}, "source": "patent EP4790070A1", "about": "(Daegu Gyeongbuk Institute of Science and Technology, dated 2026)", "binders": {"B1": {"name": "anti-CD24 antibody #1 (Fc fusion)", "VH": "MAQVQLLESGGGVVQPGRSLRLSCAASGFTFSSYGMHWVRQAPGKGLEWVSGMSGDGLATYYADSVKGRFTISRDNSKNTLYLQMNSLRAEDTAVYYCARDSSSWYGGYYYYYGMDVWGQGTTVTVSSGS", "VL": "DIQMTQSPSSVSASVGDRVTITCRASQGISSWLAWYQQKPGKAPKLLIYAASSLQSGVPPRFSGSGSGTDFTLTISSLQPEDFATYYCQQSYSTPLTFGGGTKVEIKR", "notes": "also called Candidate 1; αCD24 antibody (#1)"}}, "molecular_target": "mouse CD24 on mouse cancer cell lines (4T1, LLC, B16F10) (mouse) (UniProt P24807)", "test": "flow cytometry on fixed mouse cells (4T1, LLC, B16F10), FITC anti-human IgG", "note": "No constants are given. Whether binding was seen depends on the method and setting. Some results given as binding are weak or reduced against the parent protein; the word gives no strength.", "data": [{"binder": "B1", "values": [{"measurement": "binding", "value": "binds"}]}]}
